Data reported in article PMC12531871, “Indole-2-carboxamides Optimization for Antiplasmodial Activity” (ACS Bio & Med Chem Au, 2025).

Assays:
[1] = tested on: P. falciparum K1 strain; test: Antiplasmodial activity against resistant P. falciparum K1; assay type: cell-based, Plasmodium falciparum
[2] = tested on: P. falciparum Dd2 strain; test: Antiplasmodial activity against resistant P. falciparum Dd2; assay type: cell-based, Plasmodium falciparum
[3] = tested on: P. falciparum Dd2 and K1 strains; settings: Dd2 and K1 related to 3D7
[4] = tested on: P. falciparum Dd2 (chloroquine resistance); test: Effect of verapamil on inhibitory activity in P. falciparum Dd2; assay type: cell-based, Plasmodium falciparum; settings: for fold decrease of IC50 by verapamil in Dd2: 10 μM VP, Dd2 strain; for fold decrease of inhibitory activity (IC50 increase) in Dd2 versus 3D7: CQ-resistant Dd2 strain, without VP
[5] = ratio of IC50 resistant strain / NF54

SMILES | IC50 Fold-shift K1/3D7 [1] | IC50 Fold-shift Dd2/3D7 [2] | fold-shifts in the IC50 values against the resistant strains [3] | resistance index, K1 [1, 5] | resistance index, Dd2 [2, 5] | fold decrease of IC50 by verapamil in Dd2 [4] [fold] | fold decrease of inhibitory activity (IC50 increase) in Dd2 versus 3D7 [4] [fold]
CN1CCC(N(Cc2cccnc2)C(=O)c2cc3cc(Cl)ccc3[nH]2)CC1 [Compound 5t, 5-Chloro-N-(1-methylpiperidin-4-yl)-N-(pyridin-3-ylmethyl)-1H-indole-2-carboxamide] | 1.5 | 2 | below 5 fold | – | – | – | –
O=C(c1cc2cccc(Cl)c2[nH]1)N(Cc1cccnc1)CC1CCNC1 (centres unmarked) [Compound 6c, 7-Chloro-N-(3-pyridylmethyl)-N-(pyrrolidin-3-ylmethyl)-1H-indole-2-carboxamide] | 2 | 4 | below 5 fold | – | – | – | –
O=C(c1cc2cc(C(F)(F)F)ccc2[nH]1)N(Cc1cccnc1)CC1CCNC1 (centres unmarked) [Compound 6f, N-(3-Pyridylmethyl)-N-(pyrrolidin-3-ylmethyl)-5-(trifluoromethyl)-1H-indole-2-carboxamide] | 11 | >25 | greater than 5 fold | 20 | 7 | ~8 | 20
Cc1c(C(=O)N(Cc2cccnc2)CC2CCNC2)[nH]c2ccc(Cl)cc12 (centres unmarked) [Compound 6g, 5-Chloro-3-methyl-N-(3-pyridylmethyl)-N-(pyrrolidin-3-ylmethyl)-1H-indole-2-carboxamide] | 1.5 | 2 | below 5 fold | – | – | – | –
Cl.O=C(c1cc2cc(Cl)ccc2[nH]1)N(Cc1cccnc1)C1CCNCC1 [Compound 6x, 5-Chloro-N-(piperidin-4-yl)-N-(pyridin-3-ylmethyl)-1H-indole-2-carboxamide hydrochloride] | 13 | 12 | greater than 5 fold | – | – | ~5 | 20
O=C(c1cc2cc(C(F)(F)F)ccc2[nH]1)N(Cc1cccnc1)C1CCNCC1 [Compound 6y, N-(Piperidin-4-yl)-N-(pyridin-3-ylmethyl)-5-(trifluoromethyl)-1H-indole-2-carboxamide] | 7 | 5 | greater than 5 fold | – | – | – | –
CN1CCC(CN(Cc2cccnc2)C(=O)c2cc3cc(Cl)ccc3[nH]2)C1 (centres unmarked) [Compound 7a, 5-Chloro-N-[(1-methylpyrrolidin-3-yl)methyl]-N-(pyridin-3-ylmethyl)-1H-indole-2-carboxamide] | 1.5 | 3 | below 5 fold | – | – | – | –
CCN(CC)CCCC(C)Nc1ccnc2cc(Cl)ccc12 (centres unmarked) [chloroquine, reference compound] | – | – | – | – | – | 10 | 17
